Results are given in words; binding and its absence hold for the method and conditions named. Some entries that bind do so weakly or less than the wild type.

Protein sequences, listed by entry. Tags and fused reporters are not part of them. Lines headed by an entry give the natural chain unless they say otherwise; changes in a name come on top. Residues count along the entry.
UniProt O60449, residues 28-1664: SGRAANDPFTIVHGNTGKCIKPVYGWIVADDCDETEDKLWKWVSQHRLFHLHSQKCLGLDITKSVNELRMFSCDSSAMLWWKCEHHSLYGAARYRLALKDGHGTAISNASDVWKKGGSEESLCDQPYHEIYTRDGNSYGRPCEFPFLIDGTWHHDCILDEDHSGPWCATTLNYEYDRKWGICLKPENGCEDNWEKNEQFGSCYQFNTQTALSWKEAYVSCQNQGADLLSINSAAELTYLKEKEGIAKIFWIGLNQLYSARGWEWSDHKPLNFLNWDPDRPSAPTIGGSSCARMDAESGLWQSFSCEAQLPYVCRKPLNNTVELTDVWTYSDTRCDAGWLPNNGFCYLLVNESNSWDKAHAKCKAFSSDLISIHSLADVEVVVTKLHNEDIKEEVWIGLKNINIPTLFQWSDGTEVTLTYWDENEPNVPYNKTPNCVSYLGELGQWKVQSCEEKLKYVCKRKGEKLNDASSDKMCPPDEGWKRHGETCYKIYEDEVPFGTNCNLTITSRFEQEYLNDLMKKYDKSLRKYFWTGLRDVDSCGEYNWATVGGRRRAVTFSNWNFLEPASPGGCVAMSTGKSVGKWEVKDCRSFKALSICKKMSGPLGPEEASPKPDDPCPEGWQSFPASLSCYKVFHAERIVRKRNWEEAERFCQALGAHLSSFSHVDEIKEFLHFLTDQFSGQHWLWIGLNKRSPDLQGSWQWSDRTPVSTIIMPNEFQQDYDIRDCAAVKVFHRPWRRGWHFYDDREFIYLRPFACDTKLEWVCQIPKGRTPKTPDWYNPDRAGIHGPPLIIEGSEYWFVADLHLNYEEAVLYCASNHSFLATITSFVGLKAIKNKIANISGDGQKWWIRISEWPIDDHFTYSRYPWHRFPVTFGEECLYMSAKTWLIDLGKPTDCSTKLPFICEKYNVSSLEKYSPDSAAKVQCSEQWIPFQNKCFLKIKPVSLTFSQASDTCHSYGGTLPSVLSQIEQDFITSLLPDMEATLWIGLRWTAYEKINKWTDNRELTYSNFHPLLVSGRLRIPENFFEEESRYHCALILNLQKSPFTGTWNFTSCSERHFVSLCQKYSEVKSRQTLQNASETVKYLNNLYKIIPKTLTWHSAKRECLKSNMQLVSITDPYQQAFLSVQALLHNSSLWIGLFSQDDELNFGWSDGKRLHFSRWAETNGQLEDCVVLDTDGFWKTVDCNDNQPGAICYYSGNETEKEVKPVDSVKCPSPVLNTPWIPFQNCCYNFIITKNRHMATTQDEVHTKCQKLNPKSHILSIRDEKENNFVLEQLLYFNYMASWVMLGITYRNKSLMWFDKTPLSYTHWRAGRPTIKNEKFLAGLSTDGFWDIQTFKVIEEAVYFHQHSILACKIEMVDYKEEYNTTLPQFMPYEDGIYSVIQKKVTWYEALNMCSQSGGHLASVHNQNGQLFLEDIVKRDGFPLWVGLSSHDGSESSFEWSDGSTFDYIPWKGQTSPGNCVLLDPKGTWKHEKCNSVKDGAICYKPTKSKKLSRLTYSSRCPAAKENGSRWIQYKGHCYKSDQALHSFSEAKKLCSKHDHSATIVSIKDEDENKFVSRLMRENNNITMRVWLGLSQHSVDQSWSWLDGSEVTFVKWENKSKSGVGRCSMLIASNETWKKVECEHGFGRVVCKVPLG

For assay [1], the target named is soluble DEC-205 ectodomain (ECD), residues 1-1664 (human) (UniProt O60449). Put plainly: SEC-MALS; DEC-205 ECD, 50 ul at 1 mg ml^-1, Superdex 200 5/150, BIS-TRIS buffer (10 mM BIS-TRIS pH 6.0, 150 mM NaCl); both purified. Background: SEC sorts molecules by how far they enter the pores of the column.
For assay [2] the target is unchanged. Put plainly: AUC; sedimentation velocity, DEC-205 ECD 0.2 mg ml^-1, BIS-TRIS buffer pH 6.0, 150 mM NaCl, 20 °C, 37,000 RPM; both purified.
The target is the same in assay [3]. In words: AUC; sedimentation velocity, DEC-205 ECD at pH 7.7, with CpG oligonucleotide added; both purified.
The target is the same in assay [4]. In words: AUC; sedimentation velocity, DEC-205 ECD at pH 7.4; both purified.

Take “soluble DEC-205 ectodomain (ECD), residues 1-1664 (from UniProt O60449-1 28-1664) (domain or fragment)”: the binding entry in assay [1] was “no binding (condition: at pH 6.0 (1 mg ml^-1 loaded))”; in assay [2], “no binding (condition: at pH 6.0 (0.2 mg ml^-1))”; in assay [3], “no binding (condition: at pH 7.7 upon the addition of CpG)”; in assay [4], “binds weakly”.

Source of the values: publication PMC7948739 (The Journal of Biological Chemistry, 2020).
